Test results reported in PubChem BioAssay AID662 (National Center for Advancing Translational Sciences (NCATS), 2007).
This is one part of the list. The main result of the screen is listed elsewhere. These columns were measured beside it and carry no call. The list favours compounds with an active or inconclusive main result. The note in brackets gives the kind of curve behind each potency; many fits are weak.

experiment: Cell signaling CRE-BLA (Fsk stim); details: CHO CRE-bla reporter (cAMP response element driving beta-lactamase), forskolin EC10, beta-lactamase ratio; measured here: 460 nm blue channel
Excerpt: NIH Molecular Libraries Screening Centers Network [MLSCN]
NIH Chemical Genomics Center [NCGC]
Assay Provider: Marshall W. Nirenberg, U.S. National heart lung & blood institute
Memories persist for different lengths of time, from seconds or minutes to a lifetime. There are two kinds of memory: short-term memory (STM) and long-term memory (LTM). STM lasts for minutes to hours, which maybe mediated by modifications of molecules involved in synaptic functions. LTM lasts for days or longer, and may be due to the formation of new synapses or restructuring of existing synapses. LTM, but not STM, requires gene transcription and synthesis of proteins. CREB (cyclic-AMP Responsive Element Binding Protein) is one of the candidates plays an important role for enhancement of some types of LTM. CREB, a family of transcription factors, regulates the transcription of genes containing cAMP Responsive Elements (CRE). CRE is a nucleotide sequence often found in the promoter regions of genes that are binding sites for CREB.
Using a beta-lactamase reporter-gene under control of cAMP responsive element, a cell-based assay [CellSensor(TM) CRE-bla CHO developed by Invitrogen Corp.] was used to measure forskolin-induced signaling. Library compounds were measured for their ability to modulate positively or negatively the action of EC10 NKH 477, a water soluble forskolin, on reporter gene activity. Compounds were screened in a titration series in 1536-well format. Positive and negative modulators were identified based on the AC50 values derived from the screening data.
NCGC Assay Protocol Summary
2000 cells/5uL in Opti-MEM medium containing 0.5% dialyzed FBS, 0.1 mM NEAA, 1 mM sodium pyruvate and 10 mM HEPES was dispensed into 1536-well plates and cells were cultured at 37 degrees Celsius overnight. […] And then the plates were incubated at 37 degrees Celsius for 3 hours. 1 uL of CCF4-dye mixture was added to each well. After incubated at room temperature for 2 hours the plates were measured on an EnVision plate reader at Excitation 405nm, Emission1=460nm and Emission 2=530nm. The %Activity was determined from the ratio of 460nm/530nm.
Keywords: NIH Roadmap, MLSCN, MLSMR, qHTS, NCGC, CRE, beta-lactamase reporter-gene assay.

Q: For `Cc1cc(NC(=O)C2CCN(S(=O)(=O)c3cnc[nH]3)CC2)ccc1Br`, which AC50 is on record?
A: 5.01 µM [rising, single point]

Q: Which AC50 does the source give for `Cc1ccc(S(=O)(=O)CCC(=O)OCC(=O)Nc2ncc(Cl)cc2Cl)cc1` here?
A: 0.00316 µM [falling, full curve, poor fit]

Q: For `c1ccc(Cn2c(CSc3nnnn3-c3ccccc3)nc3ccccc32)cc1`, which AC50 is on record?
A: 3.98 µM [rising, partial curve]

Q: Which AC50 does the source give for `O=C(Nc1c(C(=O)Nc2cccc(F)c2)oc2ccccc12)c1ccc2c(c1)OCO2` here?
A: 3.98 µM [rising, partial curve]

Q: For `C[C@@H](C(=O)NCc1ccccc1)[C@H]1C[C@]1(C)[C@H](NC(=O)OCc1ccccc1)c1ccccc1`, which AC50 is on record?
A: 3.98 µM [falling, partial curve]

Q: Which AC50 does the source give for `CCOc1cc2c(cc1OCC)C(c1cc(OC)c(O)c(OC)c1)NCC2` (centres undefined) here?
A: 12.6 µM [rising, partial curve]

Q: With `Cc1cc2n(n1)C(c1ccc(N(C)C)cc1)Nc1ccccc1-2` (centres undefined) as the molecule, how does the AC50 read?
A: 10 µM [rising, partial curve]

Q: For `CCc1nc2c(n1O)CCc1nonc1-2`, which AC50 is on record?
A: 1.26 µM [rising, partial curve, poor fit]

Q: Which AC50 does the source give for `COc1ncc2nc(-c3cccs3)c(=O)n(CCc3ccccc3)c2n1` here?
A: 3.16 µM [rising, partial curve]

Q: Which AC50 does the source give for `COC(=O)[C@@]1(Cc2ccc(OC)cc2)[C@H]2c3cc(C(=O)N4CCCC4)n(CCO)c3C[C@H]2CN1C(=O)c1ccccc1` here?
A: 0.398 µM [rising, full curve, poor fit]

Q: Which AC50 does the source give for `COCCNc1oc(COc2cccc(C)c2)nc1C#N` here?
A: 12.6 µM [falling, partial curve]

Q: For `Cc1occc1C(=O)N1CCN(c2ccc(Cl)c(Cl)c2)CC1`, which AC50 is on record?
A: 10 µM [falling, single point]

Q: For `COc1nc(/C(N)=N/O)nc(N2CCCCC2)n1`, which AC50 is on record?
A: 10 µM [rising, partial curve]

Q: For `COc1ccc(N2CCN(c3oc(-c4ccccc4OC)nc3C#N)CC2)cc1`, which AC50 is on record?
A: 10 µM [rising, partial curve]

Q: Which AC50 does the source give for `O=C(c1ccncc1)N(Cc1ccccc1)Cc1nc2ccccc2c(=O)[nH]1` here?
A: 12.6 µM [rising, single point]

Q: With `COc1cc2c(cc1OC)CN(C(=O)CCCN1C(=O)c3ccccc3C1=O)CC2` as the molecule, how does the AC50 read?
A: 10 µM [falling, partial curve]

Q: Which AC50 does the source give for `O=C(c1ccccc1C(=O)N1CCN(c2ccc(F)cc2)CC1)N1CCN(c2ccc(F)cc2)CC1` here?
A: 15.8 µM [falling, single point]

Q: With `O=C(O)C1CC(c2ccccc2F)=NO1` (centres undefined) as the molecule, how does the AC50 read?
A: 12.6 µM [falling, partial curve]

Q: With `O=C(O)c1ccc(CN2C(=O)c3ccccc3S2(=O)=O)cc1` as the molecule, how does the AC50 read?
A: 10 µM [rising, partial curve]

Q: For `Cc1cc(-n2nc(C)cc2C)nc(NS(=O)(=O)c2ccccc2)n1`, which AC50 is on record?
A: 15.8 µM [rising, partial curve]

Q: Which AC50 does the source give for `O=C(CNS(=O)(=O)c1ccc(Br)s1)N1CCCC1` here?
A: 0.398 µM [falling, partial curve]

Q: With `CCOC(=O)c1cc2nc(Nc3ccc(OC)cc3)sc2s1` as the molecule, how does the AC50 read?
A: 25.1 µM [rising, single point]

Q: With `N#CCCn1c2ccccc2c2nc3ccccc3nc21` as the molecule, how does the AC50 read?
A: 2 µM [rising, full curve]

Q: Which AC50 does the source give for `CCOc1ccccc1Cn1c(=O)oc2ccc(C)cc21` here?
A: 0.00398 µM [falling, full curve, poor fit]

Q: Which AC50 does the source give for `CC1CN(c2nc3ccccc3nc2C(C#N)C(=O)NC2CCCCC2)CC(C)O1` (centres undefined) here?
A: 15.8 µM [rising, partial curve, poor fit]

Q: With `c1ccc2[nH]c(CSc3nnc(-c4ccncc4)o3)nc2c1` as the molecule, how does the AC50 read?
A: 1.26 µM [rising, full curve]

Q: With `Cc1cc(C)n2nc(C(=O)Nc3ccccc3N3CCOCC3)nc2n1` as the molecule, how does the AC50 read?
A: 5.01 µM [falling, single point]

Q: Which AC50 does the source give for `Oc1ccc(-c2nc(-c3ccc(O)c(O)c3)cs2)cc1` here?
A: 3.98 µM [falling, partial curve]

Q: For `CCOc1ccccc1C1C(C(=O)OC)=CN(C)C=C1C(=O)OC`, which AC50 is on record?
A: 10 µM [rising, partial curve]

Q: Which AC50 does the source give for `C=CCN1C(=O)C2C(C(=O)NC)C3(C)C=CC2(O3)C1C(=O)NCc1ccc(OC)cc1` (centres undefined) here?
A: 25.1 µM [falling, single point]

Q: For `O=S(=O)(NC1=NCCCCCC1)c1cccs1`, which AC50 is on record?
A: 5.01 µM [falling, single point]

Q: Which AC50 does the source give for `COc1ccc(NC(=O)CSc2nnc(Cc3cccn3C)n2-c2ccc(OC)cc2)cc1` here?
A: 7.94 µM [falling, partial curve]

Q: Which AC50 does the source give for `CCCOC(=O)Nc1sc2c(c1C(=O)OCC)CCC2` here?
A: 10 µM [rising, single point]

Q: Which AC50 does the source give for `COc1cc(-c2noc(-c3cccs3)n2)cc(OC)c1OC` here?
A: 10 µM [rising, single point]

Q: With `CCOC(=O)C1CCN(C(=O)CN(Cc2ccc(Cl)cc2)S(C)(=O)=O)CC1` as the molecule, how does the AC50 read?
A: 10 µM [rising, partial curve]

Q: With `Cc1cccn2c(=O)c3cc(C(=O)NCc4ccco4)c(=N)n(C(C)C)c3nc12` as the molecule, how does the AC50 read?
A: 12.6 µM [rising, partial curve]

Q: For `CCCC(=O)Nc1ccc2oc(-c3cccnc3)nc2c1`, which AC50 is on record?
A: 15.8 µM [rising, single point]

Q: With `COc1ccc2nc(N3CCC(O)CC3)c(C#N)cc2c1` as the molecule, how does the AC50 read?
A: 12.6 µM [rising, single point]

Q: Which AC50 does the source give for `COc1ccc2c(c1)c(=O)cc(C)n2CC(=O)NCc1ccco1` here?
A: 25.1 µM [rising, single point]

Q: Which AC50 does the source give for `Cc1occc1-c1nnc(SCc2nnc(-c3ccc(Cl)cc3)o2)n1C` here?
A: 5.01 µM [falling, single point]

Q: For `Cc1cc(Cl)cc(Cl)c1OCC(=O)NCc1ccco1`, which AC50 is on record?
A: 0.126 µM [falling, full curve]

Q: For `Cc1nc2ccc(F)cc2cc1C(=O)NC(C)C`, which AC50 is on record?
A: 3.16 µM [falling, single point]

Q: With `CN(C)S(=O)(=O)N1CCC(Cc2ccccc2)CC1` as the molecule, how does the AC50 read?
A: 0.631 µM [rising, partial curve]

Q: With `Cc1c(C(=O)NCc2ccccn2)sc2nc(-c3ccc(F)cc3)cn12` as the molecule, how does the AC50 read?
A: 15.8 µM [rising, partial curve]

Q: For `N#CC(C(=O)OCc1ccccc1)c1nc2ccccc2nc1N1CCOCC1` (centres undefined), which AC50 is on record?
A: 12.6 µM [rising, partial curve]

Q: With `O=C(Nc1ccc2c(c1)OCO2)C1CC(c2c(F)cccc2Cl)=NO1` (centres undefined) as the molecule, how does the AC50 read?
A: 20 µM [falling, partial curve]

Q: Which AC50 does the source give for `Cc1ccc(S(=O)(=O)NC2=NCN(C3CCCCC3)CN2)cc1` here?
A: 1 µM [falling, full curve]

Q: Which AC50 does the source give for `CC(C)(C)OC(=O)N1CCN(c2ccc(NC(=O)Cn3nnc(-c4ccccc4)n3)cc2)CC1` here?
A: 10 µM [falling, single point]

Q: Which AC50 does the source give for `O=C(O)CCC(=O)CCC(=O)c1ccc(Cl)cc1` here?
A: 0.398 µM [rising, partial curve]

Q: For `CCOc1ccc(-c2nnn(CC(=O)Nc3cc(OC)ccc3OC)n2)cc1OCC`, which AC50 is on record?
A: 3.16 µM [rising, single point]

Q: For `CCOc1ccc(CCNC(=O)CN(C)S(=O)(=O)c2cccc3nsnc23)cc1OCC`, which AC50 is on record?
A: 0.2 µM [rising, partial curve]

Q: Which AC50 does the source give for `c1cncc(-c2nc(NCc3ccco3)c3ccccc3n2)c1` here?
A: 25.1 µM [falling, single point]

Q: With `NCCCC(=O)O` as the molecule, how does the AC50 read?
A: 0.00794 µM [rising, full curve, poor fit]

Q: Which AC50 does the source give for `O=C(CN1C(=O)CCC1=O)Nc1ccc(Br)cc1` here?
A: 5.01 µM [falling, single point]

Q: With `O=C(O)CC[P+](c1ccccc1)(c1ccccc1)c1ccccc1` as the molecule, how does the AC50 read?
A: 0.631 µM [rising, single point]

Q: With `c1ccc(Cc2nn3c(C4COc5ccccc5O4)nnc3s2)cc1` (centres undefined) as the molecule, how does the AC50 read?
A: 3.16 µM [falling, single point]

Q: With `COc1ccc(-c2nnc(COc3ccc4ccccc4c3)o2)cc1OC` as the molecule, how does the AC50 read?
A: 0.631 µM [rising, full curve]

Q: For `Cc1nnc2ccc(N3CCN(c4ccccn4)CC3)nn12`, which AC50 is on record?
A: 7.94 µM [rising, partial curve]

Q: For `CN(C)c1ncc2nc(-c3ccc(F)cc3)c(=O)n(Cc3ccc(F)cc3)c2n1`, which AC50 is on record?
A: 12.6 µM [rising, partial curve]

Q: Which AC50 does the source give for `c1ccc(-c2nnc3sc(-c4cc5ccccc5o4)nn23)cc1` here?
A: 12.6 µM [rising, partial curve]

Q: Which AC50 does the source give for `CCn1nc(C(=O)OCC(=O)c2ccc3c(c2)OCCO3)c2ccccc2c1=O` here?
A: 3.16 µM [falling, partial curve]

Q: With `Cc1[nH]n(-c2ccccc2)c(=O)c1-c1ccccc1` as the molecule, how does the AC50 read?
A: 12.6 µM [rising, single point]

Q: Which AC50 does the source give for `CCOC(=O)C1CCN(C2CC(=O)N(c3ccc(OCC)cc3)C2=O)CC1` (centres undefined) here?
A: 0.00501 µM [falling, full curve, poor fit]

Q: With `CCc1nc2ccccc2n1CC(=O)N1CCN(S(=O)(=O)c2cccc(C(F)(F)F)c2)CC1` as the molecule, how does the AC50 read?
A: 5.01 µM [rising, single point]

Q: For `Cc1cc2c(=O)n(CC(=O)NCC(=O)N3CCN(Cc4ccccc4)CC3)cnc2s1`, which AC50 is on record?
A: 0.501 µM [falling, full curve]

Q: Which AC50 does the source give for `O=C(NCc1cccs1)c1cnc2sccn2c1=O` here?
A: 10 µM [rising, single point]

Q: For `CC(=O)NC(CCS(C)(=O)=O)C(=O)Nc1c(F)cccc1F` (centres undefined), which AC50 is on record?
A: 1.26 µM [falling, partial curve]

Q: For `Cc1ccc(S(=O)(=O)N2CCCCC2C(=O)NCc2ccco2)cc1` (centres undefined), which AC50 is on record?
A: 3.98 µM [falling, partial curve, poor fit]

Q: Which AC50 does the source give for `COC(=O)CSc1nnnn1-c1ccccc1` here?
A: 5.01 µM [falling, single point]
